# Some of the results follow.
# B1: Layilin (Mus musculus), Q8C351 (protein)
# chain: MQPGAALQAMLLAVLLAKPRDSKGRLLSASDLDPRGGQLVCRGGTRRPCYKVIYFHDAFQRLNFEEAKETCMEDGGQLVSIETEDEQRLIEKFIENLLASDGDFWIGLKRLEEKQSNNTACQDLYAWTDGSTSQFRNWYVDEPSCGSEVCVVMYHQPSAPPGIGGSYMFQWNDDRCNMKNNFICKYHDDKPSTTPSIWPGGEATEPATPLLPEETQKEDTKETFKERREAALNLAYILIPSIPLFLLLVVTSAVCWVWICRRKREQTDPSTKEQHTIWPTPRQENSPNLDVYNVIRKQSEADLAEPRPDLKNISFRVCSGEAMPDDMSCDYENIAVNPSESGFVTLASMESGFVTNDIYEFSPDRMGRSKESGWVENEIYY
# How the values were obtained:
# Test in all cases: glycan array binding signal (z-score within array); higher = stronger binding
# Conditions in all cases: glycan notation: IUPAC condensed, linker removed
# [1] = target: Fuc(a1-2)[GalNAc(a1-3)]Gal(b1-4)[Fuc(a1-3)]GlcNAc
# How it was run: (§1)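 Glycan array binding is given as a within-array Z-score, which can be read as non-binding when negative. The arrays, 3228 of them, came from the Consortium for Functional Glycomics database and were retained only where the protein sequence was available. Z-scores were averaged across arrays of the same protein sequence at different concentrations or buffers and across linkers.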
# [2] = target: Fuc(a1-2)[GalNAc(a1-3)]Gal(b1-4)[Fuc(a1-3)]GlcNAc(b1-3)GalNAc
# How it was run: as §1
# [3] = target: Fuc(a1-2)[GalNAc(a1-4)]Gal(b1-4)GlcNAc
# How it was run: as §1
# [4] = target: Fuc(a1-2)[GalNAc(b1-3)]Gal
# How it was run: as §1
# [5] = target: Fuc(a1-3)GlcNAc
# How it was run: as §1
# [6] = target: Fuc(a1-3)[Gal(b1-4)]Glc6S
# How it was run: as §1
# [7] = target: Fuc(a1-3)[Gal(b1-4)]GlcNAc
# How it was run: as §1
# [8] = target: Fuc(a1-3)[Gal(b1-4)]GlcNAc(b1-2)Man(a1-3)[Fuc(a1-3)[Gal(b1-4)]GlcNAc(b1-2)Man(a1-6)]Man(b1-4)GlcNAc(b1-4)GlcNAc
# How it was run: as §1
# [9] = target: Fuc(a1-3)[Gal(b1-4)]GlcNAc(b1-2)Man(a1-3)[Fuc(a1-3)[Gal(b1-4)]GlcNAc(b1-2)Man(a1-6)]Man(b1-4)GlcNAc(b1-4)[Fuc(a1-6)]GlcNAc
# How it was run: as §1
# [10] = target: Fuc(a1-3)[Gal(b1-4)]GlcNAc(b1-3)Gal(b1-3)[Fuc(a1-4)]GlcNAc
# How it was run: as §1
# [11] = target: Fuc(a1-3)[Gal(b1-4)]GlcNAc(b1-3)GalNAc
# How it was run: as §1
# [12] = target: Fuc(a1-3)[Gal(b1-4)]GlcNAc(b1-4)Gal(b1-4)[Fuc(a1-3)]GlcNAc
# How it was run: as §1
# [13] = target: Fuc(a1-3)[Gal(b1-4)]GlcNAc(b1-4)Gal(b1-4)[Fuc(a1-3)]GlcNAc(b1-4)Gal(b1-4)[Fuc(a1-3)]GlcNAc
# How it was run: as §1
# [14] = target: Fuc(a1-3)[Gal(b1-4)]GlcNAc(b1-6)GalNAc
# How it was run: as §1
# [15] = target: Fuc(a1-3)[Gal(b1-4)]GlcNAc(b1-6)[Gal(b1-3)GlcNAc(b1-3)]Gal(b1-4)Glc
# How it was run: as §1
# [16] = target: Fuc(a1-3)[Gal(b1-4)]GlcNAc(b1-6)[Neu5Ac(a2-3)Gal(b1-3)]GalNAc
# How it was run: as §1
# [17] = target: Fuc(a1-3)[Gal(b1-4)]GlcNAc6S
# How it was run: as §1
# [18] = target: Fuc(a1-3)[Gal3S(b1-4)]GlcNAc
# How it was run: as §1
# [19] = target: Fuc(a1-3)[Gal3S(b1-4)]GlcNAc6S
# How it was run: as §1
# [20] = target: Fuc(a1-3)[GalNAc(b1-4)]GlcNAc
# How it was run: as §1
# [21] = target: Fuc(a1-4)GlcNAc
# How it was run: as §1
# [22] = target: Fuc(b1-3)GlcNAc
# How it was run: as §1
# [23] = target: Gal(a1-2)Gal
# How it was run: as §1
# [24] = target: Gal(a1-3)Gal
# How it was run: as §1
# [25] = target: Gal(a1-3)Gal(b1-3)GlcNAc
# How it was run: as §1
# [26] = target: Gal(a1-3)Gal(b1-3)GlcNAc(b1-2)Man(a1-3)[Gal(a1-3)Gal(b1-3)GlcNAc(b1-2)Man(a1-6)]Man(b1-4)GlcNAc(b1-4)GlcNAc
# How it was run: as §1
# [27] = target: Gal(a1-3)Gal(b1-3)GlcNAc(b1-3)GalNAc
# How it was run: as §1
# [28] = target: Gal(a1-3)Gal(b1-3)[Fuc(a1-4)]GlcNAc(b1-2)Man(a1-3)[Gal(a1-3)Gal(b1-3)[Fuc(a1-4)]GlcNAc(b1-2)Man(a1-6)]Man(b1-4)GlcNAc(b1-4)GlcNAc
# How it was run: as §1
# [29] = target: Gal(a1-3)Gal(b1-4)Glc
# How it was run: as §1
# [30] = target: Gal(a1-3)Gal(b1-4)GlcNAc
# How it was run: as §1
# [31] = target: Gal(a1-3)Gal(b1-4)GlcNAc(b1-3)GalNAc
# How it was run: as §1
# [32] = target: Gal(a1-3)Gal(b1-4)[Fuc(a1-3)]GlcNAc
# How it was run: as §1
# [33] = target: Gal(a1-3)Gal(b1-4)[Fuc(a1-3)]GlcNAc(b1-2)Man(a1-3)[Gal(a1-3)Gal(b1-4)[Fuc(a1-3)]GlcNAc(b1-2)Man(a1-6)]Man(b1-4)GlcNAc(b1-4)GlcNAc
# How it was run: as §1
# [34] = target: Gal(a1-3)GalNAc
# How it was run: as §1
# [35] = target: Gal(a1-3)[Gal(a1-4)]Gal(b1-4)GlcNAc
# How it was run: as §1
# [36] = target: Gal(a1-4)Gal(b1-3)GlcNAc(b1-2)Man(a1-3)[Gal(a1-4)Gal(b1-3)GlcNAc(b1-2)Man(a1-6)]Man(b1-4)GlcNAc(b1-4)GlcNAc
# How it was run: as §1
# [37] = target: Gal(a1-4)Gal(b1-4)Glc
# How it was run: as §1
# [38] = target: Gal(a1-4)Gal(b1-4)GlcNAc
# How it was run: as §1
binder,measurement,setting,value
B1,glycan array binding signal (z-score),[1],1.01
same,glycan array binding signal (z-score),[2],2.16
same,glycan array binding signal (z-score),[3],-0.629
same,glycan array binding signal (z-score),[4],-1.12
same,glycan array binding signal (z-score),[5],0.905
same,glycan array binding signal (z-score),[6],-0.93
same,glycan array binding signal (z-score),[7],-0.489
same,glycan array binding signal (z-score),[8],-0.753
same,glycan array binding signal (z-score),[9],1.43
same,glycan array binding signal (z-score),[10],-0.959
same,glycan array binding signal (z-score),[11],2.71
same,glycan array binding signal (z-score),[12],2.48
same,glycan array binding signal (z-score),[13],-0.267
same,glycan array binding signal (z-score),[14],1.8
same,glycan array binding signal (z-score),[15],-1.03
same,glycan array binding signal (z-score),[16],0.249
same,glycan array binding signal (z-score),[17],-0.936
same,glycan array binding signal (z-score),[18],0.329
same,glycan array binding signal (z-score),[19],0.08
same,glycan array binding signal (z-score),[20],-0.453
same,glycan array binding signal (z-score),[21],0.111
same,glycan array binding signal (z-score),[22],0.342
same,glycan array binding signal (z-score),[23],0.185
same,glycan array binding signal (z-score),[24],-0.772
same,glycan array binding signal (z-score),[25],-0.17
same,glycan array binding signal (z-score),[26],1.5
same,glycan array binding signal (z-score),[27],0.017
same,glycan array binding signal (z-score),[28],-0.26
same,glycan array binding signal (z-score),[29],-0.614
same,glycan array binding signal (z-score),[30],-0.698
same,glycan array binding signal (z-score),[31],-0.956
same,glycan array binding signal (z-score),[32],0.504
same,glycan array binding signal (z-score),[33],-0.345
same,glycan array binding signal (z-score),[34],0.901
same,glycan array binding signal (z-score),[35],-0.142
same,glycan array binding signal (z-score),[36],-0.437
same,glycan array binding signal (z-score),[37],-0.76
same,glycan array binding signal (z-score),[38],-0.138
